Measurements taken from publication PMC5896214.

Target: Myc-PDZD7 (mouse PDZD7 short isoform, amino acids 1-557) (mouse)
Assay: co-IP; HEK293T cells transfected with Myc- and EGFP-tagged proteins; lysis in 150 mM NaCl, 50 mM Tris pH 7.5, 1% Triton X-100; immobilized anti-Myc antibody, 4°C, 2 hours; blot with anti-Myc or anti-GFP

B1: EGFP-CADM1 (mouse, full-length) (protein, UniProt Q8R5M8 48-456)
chain: QNLFTKDVTVIEGEVATISCQVNKSDDSVIQLLNPNRQTIYFRDFRPLKDSRFQLLNFSSSELKVSLTNVSISDEGRYFCQLYTDPPQESYTTITVLVPPRNLMIDIQKDTAVEGEEIEVNCTAMASKPATTIRWFKGNKELKGKSEVEEWSDMYTVTSQLMLKVHKEDDGVPVICQVEHPAVTGNLQTQRYLEVQYKPQVHIQMTYPLQGLTREGDAFELTCEAIGKPQPVMVTWVRVDDEMPQHAVLSGPNLFINNLNKTDNGTYRCEASNIVGKAHSDYMLYVYDPPTTIPPPTTTTTTTTTTTTTILTIITDTTATTEPAVHDSRAGEEGTIGAVDHAVIGGVVAVVVFAMLCLLIILGRYFARHKGTYFTHEAKGADDAADADTAIINAEGGQNNSEEKKEYFI
In the case of B1, the binding is reported as “binds”.

Results are given in words; binding and its absence hold for the method and conditions named. In cells and extracts the contact can be indirect. Binding can be weak; no strength is given. Where a sequence is shown, tags or fusion partners need not be part of it.
